The source of these data is PubChem BioAssay AID258 (DTP/NCI, 2004).

The list does not hold the whole screen: it gathers tests that were run many times, whatever their T/C, doses with no T/C, and many T/C values between a quarter and a half above the control. Further doses and runs are listed elsewhere. T/C: endpoint of the treated group in % of that of the vehicle group. Some doses have a count of surviving animals in place of a T/C: the source holds a T/C of zero for them, seemingly a mark for toxic or unscored doses. Some doses without a T/C left all or most animals alive at the check, yet need not have been tolerated: the source hardly ever lists a survival T/C far under the control, and the zero likely stands for such cases as well. Survivors were counted at the toxicity check, usually on the fifth day, unless a day is given; later deaths do not show. Schedule codes are those of the source, read here as Q, the interval in days (D) or hours (H), X, the number of doses. Some doses were run more than once; the results are listed from low to high. Some schedules carry Z or #; the key to these is not given. For survival time, this PubChem deposit counts one and a half times the control or more as active, and values a quarter to a half above the control carry no call in these data; other NCI protocols may use other cut-offs.

For this experiment, the system named is CD2F1 mice, L1210 leukemia sc, survival T/C. As to the kind of experiment: NCI In Vivo Anticancer Drug Screen. Data for tumor model L1210 Leukemia (subcutaneous) in CD2F1 (CDF1) mice. The following applies: T/C endpoint: median survival time, higher T/C = longer survival. Here is the method:
The antitumor activity of compounds was measured in mice bearing transplantable tumors. Survival or tumor size were measured and the results are expressed as the measurement made in the treated group (T) divided by the measurement made in the vehicle treated control group (C). The tumor model used in this assay is L1210 Leukemia (subcutaneous) in CD2F1 (CDF1) mice

The mark [1] stands for this setting: dose: 65.0 mg/kg/injection, schedule: Q01DX Z (sc), vehicle: methylcellulose (MC).
[2] abbreviates: dose: 108.0 mg/kg/injection, schedule: Q01DX Z (sc), vehicle: methylcellulose (MC).
Where [3] appears, read: dose: 180.0 mg/kg/injection, schedule: Q01DX Z (sc), vehicle: methylcellulose (MC).
The mark [4] stands for this setting: dose: 300.0 mg/kg/injection, schedule: Q01DX Z (sc), vehicle: methylcellulose (MC).
[5] abbreviates: dose: 500.0 mg/kg/injection, schedule: Q01DX Z (sc), vehicle: methylcellulose (MC).
Setting [6] is: dose: 400.0 mg/kg/injection, schedule: Q01DX009 (ip), vehicle: saline with Tween-80.

For the compound `Nc1ncnc2c1ncn2C(C=O)OC(C=O)CO` (configuration not stated), for the setting “dose: 65.0 mg/kg/injection, schedule: Q01DX Z (sc), vehicle: carboxymethylcellulose (CMC)”, the T/C was 133 % of control.

For the compound `CN(CCN(C)C(=O)CCOS(C)(=O)=O)C(=O)CCOS(C)(=O)=O`, the T/C was 130 % of control (dose: 50.0 mg/kg/injection, schedule: Q01DX009 (ip), vehicle: saline) and 142 % of control (dose: 100.0 mg/kg/injection, schedule: Q01DX009 (ip), vehicle: saline). Further, for the setting “dose: 400.0 mg/kg/injection, schedule: Q01DX009 (ip), vehicle: saline”, the survivor count is 7 of 10 and 10 of 10.

As for `CS(=O)(=O)OCCCCOS(C)(=O)=O`, the survivor count by setting is: (dose: 5.0 mg/kg/injection, schedule: Q01DX Z (sc), vehicle: methylcellulose (MC)) 2 of 10; (dose: 8.4 mg/kg/injection, schedule: Q01DX Z (sc), vehicle: methylcellulose (MC)) 0 of 10; (dose: 14.0 mg/kg/injection, schedule: Q01DX Z (sc), vehicle: methylcellulose (MC)) 0 of 10; (dose: 23.0 mg/kg/injection, schedule: Q01DX Z (sc), vehicle: methylcellulose (MC)) 1 of 10; (dose: 39.0 mg/kg/injection, schedule: Q01DX Z (sc), vehicle: methylcellulose (MC)) 1 of 10; under setting [1], 1 of 10. The survivor count is, setting by setting: under setting [2], 2 of 10; under setting [3], 0 of 10 and 4 of 10; under setting [4], 1 of 10; under setting [5], 0 of 10.

Turning to `C[C@]12CC[C@H](OC3OC(CO)C(O)C(O)C3O)C[C@H]1CC[C@@H]1[C@@H]2CC[C@]2(C)[C@@H](C3=CCOC3=O)CC[C@]12O` (some centres not stated), the T/C is 135 % of control (dose: 1.08 mg/kg/injection, schedule: Q01DX Z (sc), vehicle: saline) and 125 % of control (dose: 1.8 mg/kg/injection, schedule: Q01DX Z (sc), vehicle: saline).

Take `N#[N+]c1cnc([O-])[nH]c1=O`: the survivor count (dose: 23.0 mg/kg/injection, schedule: Q01DX Z (sc), vehicle: other) is 5 of 8; the survivor count under setting [1] is recorded as 0 of 8; the survivor count under setting [2] is given as 0 of 8; the survivor count (dose: 108.0 mg/kg/injection, schedule: Q01DX Z (sc), vehicle: other) is reported as 5 of 8; the survivor count under setting [3] is 0 of 8; the survivor count (dose: 180.0 mg/kg/injection, schedule: Q01DX Z (sc), vehicle: other) is on record as 0 of 8. Further, the survivor count reads like this: under setting [4], 0 of 8; (dose: 300.0 mg/kg/injection, schedule: Q01DX Z (sc), vehicle: other) 0 of 8.

Take `CN(Cc1cnc2nc(N)nc(N)c2n1)c1c(Cl)cc(C(=O)NC(CCC(=O)O)C(=O)O)cc1Br` (configuration not stated): the T/C reads like this: (dose: 28.1 mg/kg/injection, schedule: Q01DX Z (oral), vehicle: other) 127 % of control; (dose: 600.0 mg/kg/injection, schedule: Q01DX Z (oral), vehicle: other) 138 % of control; (dose: 1000.0 mg/kg/injection, schedule: Q01DX Z (oral), vehicle: other) 133 % of control.

With `O=C(Nc1cccnc1)c1ccc([N+](=O)[O-])s1`, the T/C (dose: 200.0 mg/kg/injection, schedule: Q01DX005 (ip), vehicle: saline) was 137 % of control. Moreover, under “dose: 400.0 mg/kg/injection, schedule: Q01DX005 (ip), vehicle: saline”, the survivor count is on record as 6 of 6.

For the compound `Nc1nc([Se]c2nc(N)nc3c2ncn3C2OC(CO)C(O)C2O)c2ncn(C3OC(CO)C(O)C3O)c2n1` (configuration not stated), the T/C is, setting by setting: (dose: 36.0 mg/kg/injection, schedule: Q01DX009 (ip), vehicle: distilled water + Tween-80) 131 % of control; (dose: 100.0 mg/kg/injection, schedule: Q01DX005 (ip), vehicle: distilled water + Tween-80) 147 % of control; (dose: 200.0 mg/kg/injection, schedule: Q01DX005 (ip), vehicle: distilled water + Tween-80) 145 % of control. Also, the survivor count (dose: 278.0 mg/kg/injection, schedule: Q01DX009 (ip), vehicle: distilled water + Tween-80) was 2 of 10 and 4 of 6.

With `COc1ccc2c(c1)-c1nn(CCCN(C)C)c3ccc([N+](=O)[O-])c(c13)N2`, the T/C (dose: 12.5 mg/kg/injection, schedule: Q01DX009 (ip), vehicle: water) is 125 % of control. The survivor count (dose: 50.0 mg/kg/injection, schedule: Q01DX009 (ip), vehicle: water) is given as 9 of 10.

As to `CC/C(=C(/CC)c1ccc(O)cc1)c1ccc(O)cc1`, the survivor count is recorded as 6 of 10 (dose: 12.5 mg/kg/injection, schedule: Q01DX009 (sc), vehicle: saline with Tween-80); 6 of 10 (dose: 50.0 mg/kg/injection, schedule: Q01DX009 (sc), vehicle: saline with Tween-80); 2 of 10 under setting [2]; 2 of 10 under setting [3]; 5 of 10 (dose: 200.0 mg/kg/injection, schedule: Q01DX009 (sc), vehicle: saline with Tween-80); 4 of 10 under setting [4]. In addition, the survivor count is 3 of 10 under setting [6]; 6 of 10 (dose: 400.0 mg/kg/injection, schedule: Q01DX009 (sc), vehicle: saline with Tween-80); 3 of 10 under setting [5]; 1 of 10 (dose: 833.0 mg/kg/injection, schedule: Q01DX Z (sc), vehicle: methylcellulose (MC)).

Consider `NC(Cc1ccccc1)C(=O)OCN1C(=O)C2C3C=CC(C2C1=O)C1C2C(=O)N(COC(=O)C(N)Cc4ccccc4)C(=O)C2C31` (configuration not stated), for which the T/C by setting is: (dose: 44.1 mg/kg/injection, schedule: Q01DX009 (ip), vehicle: water) 128 % of control; (dose: 60.0 mg/kg/injection, schedule: Q01DX009 (ip), vehicle: water) 130 % of control; (dose: 63.0 mg/kg/injection, schedule: Q01DX009 (ip), vehicle: other) 127 % of control; (dose: 63.0 mg/kg/injection, schedule: Q01DX009 (ip), vehicle: water) 145 % of control; (dose: 90.0 mg/kg/injection, schedule: Q01DX005 (iv), vehicle: other) 138 % of control; (dose: 151.0 mg/kg/injection, schedule: Q01DX009 (oral), vehicle: other) 135 % of control. Besides, the T/C is 137 % of control (dose: 216.0 mg/kg/injection, schedule: Q01DX009 (oral), vehicle: other); 137 % of control (dose: 309.0 mg/kg/injection, schedule: Q01DX009 (oral), vehicle: other); 143 % of control (dose: 309.0 mg/kg/injection, schedule: Q01DX009 (oral), vehicle: water). The survivor count reads like this: (dose: 166.7 mg/kg/injection, schedule: Q01DX009 (ip), vehicle: water) 0 of 10; (dose: 441.0 mg/kg/injection, schedule: Q01DX009 (oral), vehicle: water) 3 of 6; (dose: 900.0 mg/kg/injection, schedule: Q01DX009 (oral), vehicle: other) 3 of 6; (dose: 1286.0 mg/kg/injection, schedule: Q01DX009 (oral), vehicle: water) 1 of 6.

As for `CCOC(=O)C(CC(C)C)NC(=O)C(Cc1ccc(N(CCCl)CCCl)cc1)NC(C)=O` (configuration not stated), the T/C runs as follows: (dose: 64.0 mg/kg/injection, schedule: Q01DX009 (sc), vehicle: Klucel (hydroxypropylcellulose) (HPC)) 140 % of control; (dose: 96.0 mg/kg/injection, schedule: Q01DX009 (sc), vehicle: Klucel (hydroxypropylcellulose) (HPC)) 142 % of control; (dose: 256.0 mg/kg/injection, schedule: Q01DX009 (sc), vehicle: Klucel (hydroxypropylcellulose) (HPC)) 138 % of control.

As for `CC(=O)Oc1ccc[nH]c1=O`, the T/C under setting [6] is 137 % of control.
